# Primary screen of a compound library

Amino acid sequences for entries named in this document (tags omitted).
UniProt I6X8D2, whole entry: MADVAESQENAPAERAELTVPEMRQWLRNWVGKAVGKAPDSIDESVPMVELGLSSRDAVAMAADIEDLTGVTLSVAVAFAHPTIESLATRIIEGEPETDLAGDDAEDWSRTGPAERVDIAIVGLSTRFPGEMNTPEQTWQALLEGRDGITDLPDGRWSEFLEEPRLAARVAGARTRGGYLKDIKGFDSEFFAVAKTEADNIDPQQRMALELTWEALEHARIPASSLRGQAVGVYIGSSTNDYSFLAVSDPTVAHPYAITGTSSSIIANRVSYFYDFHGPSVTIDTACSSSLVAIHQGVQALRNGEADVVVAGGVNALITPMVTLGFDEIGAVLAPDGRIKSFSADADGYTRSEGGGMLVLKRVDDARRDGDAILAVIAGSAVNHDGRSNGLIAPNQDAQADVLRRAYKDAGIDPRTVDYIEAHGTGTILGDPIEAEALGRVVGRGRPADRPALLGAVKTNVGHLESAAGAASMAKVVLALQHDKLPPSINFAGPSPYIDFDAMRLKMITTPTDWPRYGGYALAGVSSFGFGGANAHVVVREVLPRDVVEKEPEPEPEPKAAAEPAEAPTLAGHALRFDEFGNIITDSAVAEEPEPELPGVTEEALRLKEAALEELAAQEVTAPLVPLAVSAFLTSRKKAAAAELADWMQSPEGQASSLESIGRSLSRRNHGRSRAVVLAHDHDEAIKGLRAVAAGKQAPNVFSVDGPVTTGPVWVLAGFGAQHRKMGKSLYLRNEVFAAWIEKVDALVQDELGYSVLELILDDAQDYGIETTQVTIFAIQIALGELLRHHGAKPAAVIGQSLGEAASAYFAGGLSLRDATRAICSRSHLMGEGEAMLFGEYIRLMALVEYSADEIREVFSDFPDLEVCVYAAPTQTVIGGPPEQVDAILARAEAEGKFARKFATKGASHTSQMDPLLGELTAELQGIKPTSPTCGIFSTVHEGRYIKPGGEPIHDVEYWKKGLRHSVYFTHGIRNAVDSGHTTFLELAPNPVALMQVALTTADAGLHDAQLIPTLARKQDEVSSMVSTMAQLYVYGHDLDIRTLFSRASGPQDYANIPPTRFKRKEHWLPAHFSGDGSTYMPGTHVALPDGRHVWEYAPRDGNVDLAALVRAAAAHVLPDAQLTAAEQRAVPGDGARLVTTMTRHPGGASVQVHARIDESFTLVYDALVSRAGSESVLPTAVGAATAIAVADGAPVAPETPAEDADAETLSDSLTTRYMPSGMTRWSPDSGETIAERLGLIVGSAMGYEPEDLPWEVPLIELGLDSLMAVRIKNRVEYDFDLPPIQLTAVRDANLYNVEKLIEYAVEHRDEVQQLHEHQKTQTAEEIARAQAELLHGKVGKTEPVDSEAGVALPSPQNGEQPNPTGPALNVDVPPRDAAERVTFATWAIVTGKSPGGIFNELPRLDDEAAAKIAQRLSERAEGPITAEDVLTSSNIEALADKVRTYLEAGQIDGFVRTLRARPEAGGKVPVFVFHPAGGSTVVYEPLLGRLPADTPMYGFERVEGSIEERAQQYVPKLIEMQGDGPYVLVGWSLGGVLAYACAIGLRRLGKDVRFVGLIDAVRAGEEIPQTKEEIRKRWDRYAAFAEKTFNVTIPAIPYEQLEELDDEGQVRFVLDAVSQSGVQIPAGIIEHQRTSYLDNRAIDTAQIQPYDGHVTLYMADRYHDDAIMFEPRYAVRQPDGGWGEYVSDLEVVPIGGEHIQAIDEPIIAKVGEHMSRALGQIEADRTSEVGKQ

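Polyketide synthase Pks13, Mycobacterium tuberculosis (UniProt I6X8D2). Enzyme assay of the thioesterase domain of polyketide synthase 13; the read-out is not stated. Compounds at 30 µM. The record gives no direction; the compounds picked for IC50 retests had high values, so higher reads as stronger inhibition. About 67,000 compounds were tested under these conditions; 0.46% (about 300) showed 50% or more at least once.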

Each number is a percent effect as filed. The record does not define 0% and 100%; most values in the screen are far below 50% and negative numbers occur (in some assays of this library far below -100). This is an unselected part of the compounds tested.

structure | effect
Cc1ncc(CN2CCCC(c3cc(C(N)=O)[nH]n3)C2)s1 (stereo not drawn) | -12.32%
Cn1cc(CN2CCC3(CC2)CC(Nc2nccs2)CO3)cn1 (stereo not drawn) | -34.35%
CCCN(Cc1nccn1C)C(=O)C(CC)Nc1cccc(OC)c1 (stereo not drawn) | -6.667%
Cn1ccc2ccnc(CC3CN(C(=O)c4cscn4)C3)c21 | -47.02%
CCNC(c1ccc(F)cc1)c1cccnc1 (stereo not drawn) | -10.73%
Cc1ncsc1C(=O)N1CCc2nnc(C3CCCCN3C)n2CC1 (stereo not drawn) | -8.652%
CC(C)(C)C(=O)NCCCc1nc2ccccc2[nH]1 | 7.663%
Cn1cc(CN2CCC(c3cc(COc4cccc(Cl)c4)[nH]n3)C2)cn1 (stereo not drawn) | -10.69%
O=C(c1cccc(F)c1)N1CCOC(c2nc(-c3ncccn3)no2)C1 (stereo not drawn) | -36.71%
CCN1CC(=O)c2sc(NC(C)C)nc2C1 | 17.45%
Cc1cc(N2CCC(NC(=O)CCc3cnn(C)c3)CC2)nc(C)n1 | -26.75%
O=C(CC1CCCC1)N1CCC2(CCN2Cc2ccc(F)cc2)C1 (stereo not drawn) | -49.65%
CC[C@H](C)[C@H](NC(=O)c1ccccc1-n1cnnn1)C(=O)OC | -29.02%
COCCc1nnc(NC(=O)Cc2ccccc2Cl)o1 | -25.19%
CCCc1nc(CN2CCCCC2Cn2cncn2)cs1 (stereo not drawn) | -6.976%
CCNC(=O)[C@H]1CN(Cc2ccccc2)C[C@@H]1C(=O)c1ccccc1 | -3.535%
O=C(NCC1(c2ccc(F)cc2)CCCC1)N1CCOC(CO)C1 (stereo not drawn) | -0.1185%
O=C1NCc2ccccc2CC12CCCN(CCCc1ccccc1)C2 (stereo not drawn) | -12.77%
Cc1noc(C2CCCN(CC(=O)N3CCc4ccccc4C3)C2)n1 (stereo not drawn) | -15.29%
NS(=O)(=O)CCCC(=O)N1CCC2(CC1)c1ccccc1CC2O (stereo not drawn) | 13.48%
COc1ccc(-n2nnc(C(N)=O)n2)cc1 | -6.18%
CCC(C(=O)NCc1csc(-c2ncccn2)n1)n1cccn1 (stereo not drawn) | -0.9053%
CS(=O)(=O)N1CCCN(c2nccn3cnnc23)CC1 | -34.31%
NC(=O)NC(=O)CCN1CCC(C(=O)c2cc(F)ccc2F)CC1 | -3.968%
Cc1ccsc1-c1nccn1CCN1CCCCC1CO (stereo not drawn) | -37.51%
CC(=O)Nc1cccc(C(C)NCC2CCS(=O)(=O)CC2)c1 (stereo not drawn) | -23.6%
Cc1nc(NCCSc2nnc(C)s2)c2cccnc2n1 | -16.85%
O=C(c1ccncc1)N1CCCC(c2cc(C(F)F)n3ncnc3n2)C1 (stereo not drawn) | 1.603%
c1cc(COC[C@]23COC[C@H]2CN(Cc2ccsc2)C3)ccn1 | -7.914%
c1cnc(N2CC[C@@H](N3CCOCC3)[C@@H]2Cc2ccncc2)nc1 | -12.83%
CCN1C(=O)C2(CCOCC2)c2cc(NC(=O)c3csnn3)ccc21 | -21.68%
Cc1cc(NC(=O)CN2CCCC2c2noc(C)n2)n(C(C)(C)C)n1 (stereo not drawn) | 1.483%
COc1nccnc1N1CCC2(CC1)C(=O)N(C)c1ccccc12 | -18.01%
O=C1COC2(CCN(Cc3ccco3)CC2)CN1Cc1cccnc1 | -11.52%
Cc1ccc(NC(=O)N2CCCC(O)(CO)CC2)cc1Cl (stereo not drawn) | -4.948%
Cc1cc(C(=O)N(C)Cc2cccs2)nc(N2CCOCC2)n1 | -12.55%
CCOc1nnc(CN2CCOC(CNc3cccnn3)C2)s1 (stereo not drawn) | -11.81%
COCCNC(=O)c1cc2c(c3ccccc3n2C)n1C(=O)N(C)C | 14.53%
CC(C)CN1CCN(Cc2nc3c(s2)CCCC3)[C@H]2CS(=O)(=O)C[C@H]21 | 3.906%
CCCS(=O)(=O)N1CCC(c2ccc(OC)cc2)CC1 | 31.03%
Cc1cccc(C(=O)NCC(O)c2ccc(F)cc2F)c1 (stereo not drawn) | 4.293%
Fc1ccccc1OCCc1cc(C2CNCCO2)n[nH]1 (stereo not drawn) | -10.49%
c1csc(-c2nc(CN3CCCCC3Cn3cccn3)co2)c1 (stereo not drawn) | 0.4081%
CN(C)c1ncc(CNC(=O)Nc2ccc(C(F)(F)F)cc2)n1C | -34.26%
Cn1cnnc1-c1cncc(NCc2ccccc2Br)c1 | 24.48%
CC1CS(=O)(=O)CCN1CCCc1ccc(Cl)cc1 (stereo not drawn) | -9.92%
O=C(NCCCc1ccc(F)cc1)c1ccc(N2CCOCC2)cc1 | -6.36%
O=C(c1ccco1)N1C[C@@H]2OCCN(CCN3CCCC3)[C@@H]2C1 | -14.05%
O=C(COC1CCCC1)NCc1ccc(O)c(F)c1 | -35.7%
NC(=O)c1ccc(CN2CCCC(N3CCCC3)C2)cc1 (stereo not drawn) | -24.56%

Measurements from “University of Dundee, Small-Polar-MMV Screening Library” (2021), ChEMBL document CHEMBL3988442.